The source of these data is PubChem BioAssay (NCATS).

The term AC50 denotes the midpoint of the concentration-response curve, whichever way the signal moves.

Where “and” joins values, the source holds several entries; their conditions need not be identical. Equal values may be shown once. The list shows a part of the results. These are further read-outs of the screen, such as a control signal, another cell line or another target. No call is given for them. The list favours compounds with an active or inconclusive main result. Potencies come from curve fits of mixed quality, noted in brackets.

A short description of the first assay: qHTS assay for small molecule antagonists of peroxisome proliferator-activated receptor gamma signaling (AID 588537). To be noted: HEK293 PPARg-UAS-bla, beta-lactamase ratio, antagonist mode; measured here: W460 blue channel. In a few lines: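 PPAR-gamma-UAS-bla HEK293 cells (3000/well, 1% charcoal/dextran-stripped FBS) were preincubated 6-6.5 h at 37 C, given titrated compounds, then stimulated with 50 nM rosiglitazone for 16 h. Beta-lactamase activity was read with CCF4 dye; IC50 came from Hill fits.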
(In general: Quantitative high-throughput screening tests each substance at several concentrations.)
For the molecule `O=C(O)C(Oc1ccc(Cl)cc1)Oc1ccc(Cl)cc1`, the AC50 was 0.00158 µM [falling, full curve, poor fit].

In the case of `Oc1ccc2c(c1)OCO2`, the AC50 was 12.6 µM [falling, partial curve, poor fit].

As for `CCCCCCCCCCCCCCO`, the AC50 is 0.00126 µM [falling, full curve, poor fit].

On to `CC(C)CCOC(=O)/C=C/c1ccccc1`, for which the AC50 was 50.1 µM [rising, single point].

With `OCC(CO)(CBr)CBr`, the AC50 is 70.8 µM [rising, single point].

Another assay can be described thus: qHTS assay for small molecule antagonists of vitamin D receptor signaling (AID 588541). To be noted: HEK293T VDR-UAS-bla, beta-lactamase ratio, antagonist mode; measured here: W460 blue channel (cell viability).
On to `CCCCOCC(C)O` (stereo not given), for which the AC50 was 251 µM [rising, full curve, poor fit] and 50.1 µM [rising, single point].

In the case of `CCCCC/C=C\C/C=C\CCCCCCCC(=O)O`, the half-maximal activity concentration (AC50) was 3.98 µM [rising, full curve, poor fit].

As for `CCCCCCCCCCCCOCC1CO1` (stereo not given), the AC50 is 0.0282 µM [falling, full curve, poor fit].

As for `CC(=O)Nc1ccc(N=Nc2cc(C)ccc2O)cc1`, the AC50 is 39.8 µM [falling, partial curve, poor fit].

On to `O=C(O)C(Oc1ccc(Cl)cc1)Oc1ccc(Cl)cc1`, for which the AC50 was 0.794 µM [falling, full curve, poor fit].
